We go through one molecule from patent US5182300A, “Furosemide salts” (Roussel Uclaf, priority 1989, dated 1993).

A short description of the data set: physchem. The settings on record: relative to initial titer; for remaining at 624 h: Titer in furosemide after 26 d; for remaining at 240 h: Titer in furosemide after 10 d; for remaining at 888 h: Titer in furosemide after 37 d.
The mark [1] stands for this setting: water, Sol. 6, 25° C., water, 90.4 mg/ml.
[2] abbreviates: water, Sol. 1, 25° C., water, 97.2 mg/ml.
Where [3] appears, read: water, Sol. 3, 25° C., water, 275.3 mg/ml.

Counter-ions that a name gives are not always drawn.

In general, share remaining refers to what is left of the initial amount, in per cent. A low value points to a greater loss.

Consider `NS(=O)(=O)c1cc(C(=O)O)c(NCc2ccco2)cc1Cl` [furosemide salt of L-lysine, L-lysine salt of furosemide], for which the fraction remaining at 624 h is, setting by setting: (physiological solution, Sol. 2, 25° C., physiol. sol., 184.4 mg/ml) 99.6%; under setting [2], 97.7%; under setting [3], 99.6%. This molecule gave a fraction remaining at 5110 h (water with 4% mannitol, Titer in furosemide after 7 m, Sol. 7, 4° C., water containing 4% by weight of mannitol, 72.1 mg/ml) of 99.9%. This molecule displayed a share remaining at 8760 h (water with 4% mannitol, Titer in furosemide after 12 m, Sol. 7, 4° C., water containing 4% by weight of mannitol, 72.1 mg/ml) of 99.1%. In addition, the fraction remaining at 240 h is, setting by setting: (water, Sol. 4, 60° C., water, 125.0 mg/ml) 99.3%; (water, Sol. 5, 25° C., preserved away from the light, water, 125.0 mg/ml) 100%; under setting [1], 99.4%. Further, the fraction remaining at 888 h came to 96.8% under setting [2]; 98.7% (water, Sol. 2, 25° C., physiol. sol., 184.4 mg/ml); 98.2% under setting [3]; 98.9% under setting [1].
